Measurements reported in PubChem BioAssay AID1159578 (Peter MacCallum Cancer Centre, 2015).
Screen: 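Genome-wide hunt for genes controlling movement of lymphatic endothelial cells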 (primary screen). Cell system: human lymphatic endothelial cells. Knock-down reagent: siRNA pool against human genes, 40 nM. Time to read-out: 48 h after transfection. Read-out: 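High-content imaging of dye-stained cells in a scratch assay measures filled wound area and nuclei per well; duplicate means given as ratio to mock and robust z-score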. Reading the numbers: migration robust z-score: higher = faster migration into the scratch; migration relative to mock: higher = more scratch area covered than mock; nuclei per well: higher = more cells in the well. Active means: 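Pools averaging fewer than 3300 nuclei are never called; remaining pools count as changed when migration robust z lies outside -2 to 2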. Meaning of the calls: active = migration changed; inactive = no migration change, or too few cells.
Shown is an unselected part of about 18,000 reagents. Over the whole deposit, about 1,030 (5.7%) were called active. 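Inactive calls also include pools with fewer than 3300 nuclei, whose migration was not assessed.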 Raw values are not corrected between plates. No sequences are given here.

Gene,migration robust z-score,migration class with cell-count check,migration relative to mock,"nuclei per well, duplicate mean",outcome
PPIF,-0.34,migration z between -2 and 2; enough cells,0.74,6644,inactive
MS4A3,1.9,migration z between -2 and 2; enough cells,1.38,7192,inactive
MOAP1,1.31,migration z between -2 and 2; enough cells,1.23,5027,inactive
RAB3A,0.08,migration z between -2 and 2; enough cells,0.82,5638,inactive
TNNI2,0.76,migration z between -2 and 2; enough cells,0.95,5458,inactive
PRICKLE3,0.44,migration z between -2 and 2; enough cells,0.89,4923,inactive
WDR13,-0.38,migration z between -2 and 2; enough cells,0.78,6790,inactive
ANKRD9,0.67,migration z between -2 and 2; enough cells,1.06,5441,inactive
DGKA,-4.23,under 3300 nuclei; migration not judged,-0.01,2428,inactive
MDH1B,-2.08,under 3300 nuclei; migration not judged,0.4,2989,inactive
GPHRB,0.36,migration z between -2 and 2; enough cells,0.88,5343,inactive
ZBTB22,0.54,migration z between -2 and 2; enough cells,1.02,5534,inactive
DDX39B,0.86,migration z between -2 and 2; enough cells,0.97,5262,inactive
TXNL4A,0.3,migration z between -2 and 2; enough cells,0.96,4903,inactive
GRIA4,0.34,migration z between -2 and 2; enough cells,0.87,5911,inactive
ONECUT1,1.53,migration z between -2 and 2; enough cells,1.1,7188,inactive
F2RL2,1.09,migration z between -2 and 2; enough cells,1.02,6432,inactive
ZNF585A,-1.64,migration z between -2 and 2; enough cells,0.46,6183,inactive
SORD,-1.24,under 3300 nuclei; migration not judged,0.56,3290,inactive

Continued (7 carried over from the part before).
Gene,migration robust z-score,migration class with cell-count check,migration relative to mock,"nuclei per well, duplicate mean",outcome
DDX39B,0.86,migration z between -2 and 2; enough cells,0.97,5262,inactive
TXNL4A,0.3,migration z between -2 and 2; enough cells,0.96,4903,inactive
GRIA4,0.34,migration z between -2 and 2; enough cells,0.87,5911,inactive
ONECUT1,1.53,migration z between -2 and 2; enough cells,1.1,7188,inactive
F2RL2,1.09,migration z between -2 and 2; enough cells,1.02,6432,inactive
ZNF585A,-1.64,migration z between -2 and 2; enough cells,0.46,6183,inactive
SORD,-1.24,under 3300 nuclei; migration not judged,0.56,3290,inactive
DSCAM,-1.41,migration z between -2 and 2; enough cells,0.52,5388,inactive
CFAP126,-0.54,migration z between -2 and 2; enough cells,0.75,4609,inactive
SCAMP2,1.46,migration z between -2 and 2; enough cells,1.08,4396,inactive
H1-5,-2.12,migration z below -2; enough cells,0.34,3422,active
TIAL1,0.16,migration z between -2 and 2; enough cells,0.84,6811,inactive
TRIM44,0.1,migration z between -2 and 2; enough cells,0.91,3856,inactive
BCCIP,-0.42,migration z between -2 and 2; enough cells,0.72,5262,inactive
CNP,0.16,migration z between -2 and 2; enough cells,0.84,4790,inactive
SPATS2L,-3.15,migration z below -2; enough cells,0.07,6402,active
MAP2K5,0.52,migration z between -2 and 2; enough cells,0.9,5672,inactive
SLC22A13,-0.59,migration z between -2 and 2; enough cells,0.74,6076,inactive
GAS2L2,-2.12,migration z below -2; enough cells,0.34,6308,active
FBXW7,-1.5,migration z between -2 and 2; enough cells,0.52,5340,inactive
PEX19,1.75,migration z between -2 and 2; enough cells,1.34,6276,inactive
SRSF12,0.43,migration z between -2 and 2; enough cells,1,5979,inactive
FBXO40,-1.27,migration z between -2 and 2; enough cells,0.56,5417,inactive
UCHL3,-0.93,migration z between -2 and 2; enough cells,0.62,4588,inactive
PRSS21,-0.08,migration z between -2 and 2; enough cells,0.79,5142,inactive
ERMARD,0.75,migration z between -2 and 2; enough cells,1.08,6120,inactive
PPM1A,-1.06,migration z between -2 and 2; enough cells,0.6,4942,inactive
ANKFY1,-1.18,migration z between -2 and 2; enough cells,0.58,5438,inactive
PLXNA2,-1.23,migration z between -2 and 2; enough cells,0.57,5250,inactive
VN1R2,0.36,migration z between -2 and 2; enough cells,0.88,6172,inactive
PIBF1,-0.74,migration z between -2 and 2; enough cells,0.69,6141,inactive
STOX2,2.96,migration z above 2; enough cells,1.65,5752,active
DOK4,2.33,migration z above 2; enough cells,1.49,5102,active
DNAJC12,0.02,migration z between -2 and 2; enough cells,0.89,5762,inactive
UBE3B,1.76,migration z between -2 and 2; enough cells,1.14,4943,inactive
SLC46A3,-1.23,migration z between -2 and 2; enough cells,0.57,5444,inactive
FYN,-0.31,migration z between -2 and 2; enough cells,0.74,6221,inactive
TMEM74B,0.35,migration z between -2 and 2; enough cells,0.98,5330,inactive
LCNL1,-0.76,migration z between -2 and 2; enough cells,0.69,4960,inactive
DNAI4,-3.58,under 3300 nuclei; migration not judged,-0.05,2419,inactive
C19orf53,1.75,migration z between -2 and 2; enough cells,1.32,6259,inactive
BOLA1,-0.88,migration z between -2 and 2; enough cells,0.66,4711,inactive
PLA2G2F,-0.54,migration z between -2 and 2; enough cells,0.7,5646,inactive
AP4E1,0.02,migration z between -2 and 2; enough cells,0.9,5661,inactive
PABPC5,0.92,migration z between -2 and 2; enough cells,1.12,6296,inactive
